According to PMC12143348, “Rapid and reversible fluorescent probe enables repeated snapshot imaging of AMPA receptors during synaptic plasticity” (Science Advances, 2025):

Assay: pH-dependency of fluorescent intensity in GTA buffer (spectrofluorophotometer)
Details: 2 µM probe in GTA buffer pH 4–10, normalized to pH 10

Compound: O=C(O)Cn1c(=O)c(=O)[nH]c2cc(C(F)(F)F)c(-n3ccc(CNC(=O)c4ccc(-c5c6ccc(=O)cc-6oc6cc(O)ccc56)c(C(=O)O)c4)c3)cc21
- pH dependency of the fluorescence intensity: weakened even under mild acidic conditions (e.g., pH 6); also recorded: weakened under acidic conditions (pH < 6)

Entries after “also recorded” stand apart in the source; their conditions may differ. A number of entries come with more than one value. They are shown here; other results are not. The source may hold further records. The values listed for one entry differ for a reason that is not stated; some may be repeats, others may stem from another dose, organism or construct than stated.
